# Assay results from PMC12040169 (PLOS Biology, 2025).
# This is one part of the list.
# Tested on: T1, CTL2-GFP (C. trachomatis L2/434/Bu, GFP-expressing)
# T1 construct: L2/434/Bu, GFP-expressing
# Design: species or system HeLa; Intracellular C. trachomatis growth in HeLa cells, bulk GFP fluorescence relative to DMSO
# Details: bulk GFP, single well; 28.5 h, 10 µM; inhibitor
row,Compound,% of control remaining
1,CCc1nn(CC(=O)NC(C)(C)C)c(=O)c2cc3ccsc3n12 [CBK284183],101.701%
2,O=C(CSc1nc(-c2ccccc2)cc(-c2ccccc2)n1)Nc1cccc([N+](=O)[O-])c1 [CBK263896],131.668%
3,CCNC(=O)Nc1ncc(-c2ccsc2)c2cccnc12 [CBK070686],77.1284%
4,CCC(c1c(O)c2ccccc2oc1=O)c1cccc2ccccc12 (stereo not drawn) [CBK016684],86.1328%
5,O=C(O)c1[nH]c2ccccc2c1C(c1ccsc1)c1c(C(=O)O)[nH]c2ccccc12 [CBK267811],12.6515%
6,c1ccc(-c2c(-c3ccccc3)n(Cc3ccco3)c3ncn4nc(-c5ccncc5)nc4c23)cc1 [CBK265298],100%
7,COc1cc(/C=N/Nc2nc(-c3ccccc3)cc(-c3ccc(OC)c(OC)c3)n2)ccc1O [CBK262841],40.8745%
8,O=[N+]([O-])c1ccccc1OCCNCc1ccccc1 [CBK265511G],110.82%
9,CCOC(=O)CNS(=O)(=O)c1cccs1 [CBK044958],189.431%
10,CCOC(=O)N1CCC(NC(=O)N2CCN(CCc3ccccc3)CC2)CC1 [CBK158938],139.119%
11,C[C@H](Nc1cncc(-c2cccc(N(C)C)c2)n1)c1ccccc1 [CBK065699],88.744%
12,CC(CN1CCCCC1)OC(=O)COc1ccc(Br)cc1 (stereo not drawn) [CBK265326C],117.249%
13,O=C(Cn1c(NCCCO)nc2ccccc21)c1cccs1 [CBK023894B],78.5494%
14,Nc1cc(N)nc(SCC(=O)Nc2ccc(Oc3ccccc3)cc2)n1 [CBK266749],115.011%
15,COc1ccc(-n2c(=O)c3ccccc3n(CC(=O)NC3CCCC3)c2=O)cc1 [CBK287574],149.762%
16,O=C(c1cccs1)N1CC(n2nc(-c3cccs3)ccc2=O)C1 [CBK283347],82.4478%
17,CC(C)(C)c1ccccc1NC(=O)N(CCCN)Cc1cc(F)cc(F)c1 [CBK034697C],138.158%
18,C[C@@H](Cn1nnc2ccccc21)NC(=O)Cc1cccc(F)c1 [CBK282306],132.312%
19,CCC1(CC)C(=O)N=C(C(C)(C)C)NC1=O [CBK076759],136.897%
20,O=C(O)c1ccccc1-c1ccccc1C(=O)NCCCO [CBK267197],165.244%
21,Cc1csc2c(C3CCCN(C(=O)c4ccccn4)C3)nc(C)n12 (stereo not drawn) [CBK284594],132.776%
22,Cc1sc2nc(NCCO)[nH]c(=O)c2c1C [CBK018257],104.405%
23,CCNc1cc2ccccc2c(-c2ccc(OC)c(C)c2)n1 [CBK089644],131.427%
24,Cc1ccc(CN(CCCn2ccnc2)Cc2cnn(C)c2)s1 [CBK283113],114.613%
25,O=C(COc1ccc(S(=O)(=O)N2CCCCC2)cc1)Nc1ccc2c(c1)OCCO2 [CBK268205],99.8053%
26,COc1ccc([C@@]23CCC(N)C[C@@H]2N(C)CC3)c(F)c1OC (stereo partly drawn) [CBK067416],123.096%

# Reformatted as tab-separated lines: entries from further up
row	Compound	% of control remaining
16	O=C(c1cccs1)N1CC(n2nc(-c3cccs3)ccc2=O)C1 [CBK283347]	82.4478%
17	CC(C)(C)c1ccccc1NC(=O)N(CCCN)Cc1cc(F)cc(F)c1 [CBK034697C]	138.158%
18	C[C@@H](Cn1nnc2ccccc21)NC(=O)Cc1cccc(F)c1 [CBK282306]	132.312%

# Additional compounds

row,Compound,% of control remaining
1,c1ccc2c(c1)nc(N1CCNCC1)n1cnnc21 [CBK270145],124.079%
2,c1ccc(-c2nnc3sc(-c4ccccn4)nn23)cc1 [CBK267344],134.943%
3,O=C(Cc1c[nH]c2ccccc12)N1CCC2(CCCN(C(=O)c3ccc(OC(F)(F)F)cc3)C2)C1 (stereo not drawn) [CBK131579],121.232%
4,Brc1ccc(-c2nnco2)cc1 [CBK026512],115.658%
5,CCOC(=O)N1CCC(NC(=O)N(CCC#N)C2CCCCC2)CC1 [CBK156384],117.961%
6,CCOC(=O)C1=c2s/c(=C\c3cccnc3)c(=O)n2C(N)=C(C#N)C1c1cccnc1 (stereo not drawn) [CBK262549],85.8526%
7,O=[N+]([O-])c1cc2c(cc1C(Nc1ccccn1)c1cc(Cl)c3cccnc3c1O)OCO2 (stereo not drawn) [CBK267795],50.0861%
8,CCOC(=O)C1CCCN(S(=O)(=O)c2cc(C)c(Cl)cc2C)C1 (stereo not drawn) [CBK044846],59.8349%
9,C=CCNC(=O)C1C2CCC3(CC(=O)c4cc(Cl)ccc4O3)C21 (stereo not drawn) [CBK284873],130.972%
10,c1ccc(-c2nccnc2NCC2CC2)cc1 [CBK088539],100%
11,CCOC(=O)C1CCCN(Cc2cc(F)cc(C(C)=O)c2O)C1 (stereo not drawn) [CBK304020],105.593%
12,COC(=O)[C@H]1CN(C(=O)C2CC(=O)N(C)C2)C[C@@H]1c1ccccc1F (stereo partly drawn) [CBK285470],76.9558%
13,O=C(NO)c1nc[nH]c1C(=O)NO [CBK262077],100%
14,Cc1ccc(Oc2nnnn2-c2ccccc2)c(Br)c1 [CBK002827],114.035%
15,Cc1csc(CCNCc2c(C(C)C)nn(C)c2N(C)C)n1 [CBK304140],119.166%
16,CC(CC(=O)N1CCOC(c2nc(C(C)(C)C)n[nH]2)C1)n1cccc1 (stereo not drawn) [CBK305214],122.715%
17,N#Cc1nc(-c2ccccc2)oc1NCCN1CCCCC1 [CBK264573],115.166%
18,Cc1ccc(C(=O)N2CCN(S(=O)(=O)c3sc(C(=O)O)c(C)c3C(=O)O)CC2)s1 [CBK297150],140.345%
19,O=C1CC(c2ccccc2)=NN1c1nc(-c2ccccc2)cc(-c2ccc(F)cc2)n1 [CBK261717],116.748%
20,CCN(CCO)c1ccc(Nc2nc(-c3c(OC)cccc3OC)cn3ccnc23)cc1 [CBK066267],134.316%
21,COc1cc(CC(=O)Nc2cccc(-c3ccc(OC4CCNCC4)cc3)n2)cc(OC)c1OC [CBK138351],120.067%
22,CCOC(=O)C(Cc1ccccc1)NC(=O)c1cn[nH]c1C (stereo not drawn) [CBK305499],124.295%
23,N#CCCCN1CCC(Oc2nccnc2OCc2cccc(C(F)(F)F)c2F)CC1 [CBK153646],125.216%
24,CC(NC(=O)CCN1CCN(C)CC1)c1cc2cc(Cl)ccc2o1 (stereo not drawn) [CBK281601],97.6584%
25,Cc1ccc(C(=O)O)cc1NC(=O)c1ncn(-c2ccccc2)n1 [CBK269181],130.842%
